At least one result comes from cells or an extract, where the contact may be indirect. For some assays here: A negative result means that nothing was seen under these conditions. Where a protein sequence is shown, tags need not be part of it.
What was measured:
CTCF [1] = target: T1, CTCF (UniProt Q61164); test: EMSA; settings: anti-CTCF antibody gives super-shift; LightShift chemiluminescent EMSA kit; protein in an extract
T1 sequence (looked up, limits assumed): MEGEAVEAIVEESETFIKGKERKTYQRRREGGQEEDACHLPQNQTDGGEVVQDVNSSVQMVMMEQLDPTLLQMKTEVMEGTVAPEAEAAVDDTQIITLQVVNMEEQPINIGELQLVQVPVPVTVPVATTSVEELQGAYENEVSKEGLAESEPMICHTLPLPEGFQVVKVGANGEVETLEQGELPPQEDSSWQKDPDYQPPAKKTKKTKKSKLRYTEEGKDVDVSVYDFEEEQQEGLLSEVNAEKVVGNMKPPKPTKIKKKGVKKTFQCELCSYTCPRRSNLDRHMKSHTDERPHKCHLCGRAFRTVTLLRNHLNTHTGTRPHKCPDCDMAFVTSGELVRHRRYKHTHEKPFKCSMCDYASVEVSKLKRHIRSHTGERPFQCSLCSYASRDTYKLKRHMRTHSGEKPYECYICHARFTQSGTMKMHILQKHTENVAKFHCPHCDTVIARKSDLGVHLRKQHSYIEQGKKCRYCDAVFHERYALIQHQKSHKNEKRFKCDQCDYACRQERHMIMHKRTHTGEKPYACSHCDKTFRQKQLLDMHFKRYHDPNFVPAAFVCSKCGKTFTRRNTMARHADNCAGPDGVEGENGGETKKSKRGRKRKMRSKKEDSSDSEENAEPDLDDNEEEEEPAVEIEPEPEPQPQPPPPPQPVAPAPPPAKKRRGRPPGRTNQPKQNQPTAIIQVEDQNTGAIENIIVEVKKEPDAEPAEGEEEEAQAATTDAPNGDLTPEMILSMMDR

CTCF [2] = target: T1, CTCF; test: competition with a labelled probe; settings: 20- or 200-fold molar excess of unlabeled scrambled oligo could not compete with WT oligo for CTCF binding; protein in an extract; variant of WT VH81X-CBE EMSA oligo

AAACCTCCTGCAGAGCATCCAGGACCAGCAGGGGGCGCGGAGAGCACACAGAGTTGTGAA (double strand) [WT VH81X-CBE EMSA oligo]
binding result (CTCF [1]): binds

AAACCTCCTGCAGAGCATCCGAGGCGAGCGGCCGCAGAGGAGAGCACACAGAGTTGTGAA (double strand) [scrambled VH81X-CBE EMSA oligo]
binding result (CTCF [2]): no binding
